Data as given in PubChem BioAssay AID686938 (Drosophila RNAi Screening Center, 2013).

Assay: 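Looking for CRAC channel components and the factors controlling them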 (primary screen)
Cell system: Drosophila S2R+ cells
Reagents: long dsRNA against Drosophila genes, about 0.25 µg dsRNA per well, roughly 10,000 cells
Timing: 5 days of knock-down before the calcium assay
Challenge: thapsigargin (SERCA pump blocker) to empty calcium stores; entry signal taken 4 min after adding it
Measurement: 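Duplicate raw fluo-4 intensities per well from a plate reader, at rest and four minutes after thapsigargin emptied calcium stores; entry-to-rest ratio filled for only some wells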
Reading the numbers: calcium entry signal: higher = stronger calcium signal after store depletion; resting calcium signal: higher = higher resting calcium signal
Call rule: 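Hit if the duplicate-averaged plate z-score for entry over resting signal is under −3; wells with weak total dye signal (Fmax z < −2) or more than 5 off-targets removed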
Meaning of the calls: active = strongly reduced calcium entry; inactive = no strong reduction
The screen tested about 23,000 reagents; shown is an unselected part of those that have a named target and a result. Of all reagents, 75 (0.33%) were called active. 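Raw plate signals without normalisation; calls rest on plate z-scores that were not deposited; ratio present for only 364 wells.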 Reagents against one gene are numbered here. The record does not give: the dose of the treatment.

CG12464 — calcium entry signal, replicate 1 (fluorescence units): 3.76e7; calcium entry signal, replicate 2 (fluorescence units): 4.35e7; resting calcium signal, replicate 1 (fluorescence units): 1.95e7; resting calcium signal, replicate 2 (fluorescence units): 1.84e7; activity call: inactive
Obp85a — calcium entry signal, replicate 1 (fluorescence units): 3.03e7; calcium entry signal, replicate 2 (fluorescence units): 2.91e7; resting calcium signal, replicate 1 (fluorescence units): 1.47e7; resting calcium signal, replicate 2 (fluorescence units): 1.48e7; activity call: inactive
CG15767 — calcium entry signal, replicate 1 (fluorescence units): 3.09e7; calcium entry signal, replicate 2 (fluorescence units): 3.85e7; resting calcium signal, replicate 1 (fluorescence units): 1.62e7; resting calcium signal, replicate 2 (fluorescence units): 1.80e7; activity call: inactive
alc #1 — calcium entry signal, replicate 1 (fluorescence units): 5.23e7; calcium entry signal, replicate 2 (fluorescence units): 3.70e7; resting calcium signal, replicate 1 (fluorescence units): 2.33e7; resting calcium signal, replicate 2 (fluorescence units): 1.72e7; activity call: inactive
alc #2 — calcium entry signal, replicate 1 (fluorescence units): 2.58e7; calcium entry signal, replicate 2 (fluorescence units): 3.50e7; resting calcium signal, replicate 1 (fluorescence units): 1.46e7; resting calcium signal, replicate 2 (fluorescence units): 1.65e7; activity call: inactive
alc #3 — calcium entry signal, replicate 1 (fluorescence units): 6.05e7; calcium entry signal, replicate 2 (fluorescence units): 4.43e7; resting calcium signal, replicate 1 (fluorescence units): 2.96e7; resting calcium signal, replicate 2 (fluorescence units): 2.35e7; activity call: inactive
Acp65Aa — calcium entry signal, replicate 1 (fluorescence units): 2.87e7; calcium entry signal, replicate 2 (fluorescence units): 3.49e7; resting calcium signal, replicate 1 (fluorescence units): 1.38e7; resting calcium signal, replicate 2 (fluorescence units): 1.62e7; activity call: inactive
fmt — calcium entry signal, replicate 1 (fluorescence units): 4.19e7; calcium entry signal, replicate 2 (fluorescence units): 3.10e7; resting calcium signal, replicate 1 (fluorescence units): 2.66e7; resting calcium signal, replicate 2 (fluorescence units): 1.30e7; activity call: inactive
spo — calcium entry signal, replicate 1 (fluorescence units): 3.44e7; calcium entry signal, replicate 2 (fluorescence units): 4.74e7; resting calcium signal, replicate 1 (fluorescence units): 1.59e7; resting calcium signal, replicate 2 (fluorescence units): 2.14e7; activity call: inactive
rg #1 — calcium entry signal, replicate 1 (fluorescence units): 3.62e7; calcium entry signal, replicate 2 (fluorescence units): 3.88e7; resting calcium signal, replicate 1 (fluorescence units): 2.16e7; resting calcium signal, replicate 2 (fluorescence units): 1.65e7; activity call: inactive
rg #2 — calcium entry signal, replicate 1 (fluorescence units): 2.87e7; calcium entry signal, replicate 2 (fluorescence units): 2.04e7; resting calcium signal, replicate 1 (fluorescence units): 1.21e7; resting calcium signal, replicate 2 (fluorescence units): 9.86e6; activity call: inactive
rg #3 — calcium entry signal, replicate 1 (fluorescence units): 3.61e7; calcium entry signal, replicate 2 (fluorescence units): 3.03e7; resting calcium signal, replicate 1 (fluorescence units): 1.66e7; resting calcium signal, replicate 2 (fluorescence units): 1.56e7; activity call: inactive
RecQ4 — calcium entry signal, replicate 1 (fluorescence units): 3.10e7; calcium entry signal, replicate 2 (fluorescence units): 3.27e7; resting calcium signal, replicate 1 (fluorescence units): 1.42e7; resting calcium signal, replicate 2 (fluorescence units): 1.52e7; activity call: inactive
GstE5 — calcium entry signal, replicate 1 (fluorescence units): 5.73e7; calcium entry signal, replicate 2 (fluorescence units): 5.52e7; resting calcium signal, replicate 1 (fluorescence units): 2.44e7; resting calcium signal, replicate 2 (fluorescence units): 2.65e7; activity call: inactive
Pp1-Y1 — calcium entry signal, replicate 1 (fluorescence units): 4.78e7; calcium entry signal, replicate 2 (fluorescence units): 3.05e7; resting calcium signal, replicate 1 (fluorescence units): 2.17e7; resting calcium signal, replicate 2 (fluorescence units): 1.48e7; activity call: inactive
AnxB9 — calcium entry signal, replicate 1 (fluorescence units): 4.08e7; calcium entry signal, replicate 2 (fluorescence units): 3.93e7; resting calcium signal, replicate 1 (fluorescence units): 1.84e7; resting calcium signal, replicate 2 (fluorescence units): 1.83e7; activity call: inactive
Ing3 — calcium entry signal, replicate 1 (fluorescence units): 3.29e7; calcium entry signal, replicate 2 (fluorescence units): 4.38e7; resting calcium signal, replicate 1 (fluorescence units): 1.94e7; resting calcium signal, replicate 2 (fluorescence units): 2.24e7; activity call: inactive
CG33288 — calcium entry signal, replicate 1 (fluorescence units): 3.31e7; calcium entry signal, replicate 2 (fluorescence units): 5.20e7; resting calcium signal, replicate 1 (fluorescence units): 1.81e7; resting calcium signal, replicate 2 (fluorescence units): 2.33e7; activity call: inactive
Spn43Aa — calcium entry signal, replicate 1 (fluorescence units): 4.39e7; resting calcium signal, replicate 1 (fluorescence units): 2.25e7; activity call: inactive
ND-B8 — calcium entry signal, replicate 1 (fluorescence units): 2.19e7; calcium entry signal, replicate 2 (fluorescence units): 2.51e7; resting calcium signal, replicate 1 (fluorescence units): 1.11e7; resting calcium signal, replicate 2 (fluorescence units): 1.20e7; activity call: inactive
CG42720 (retired record) — calcium entry signal, replicate 1 (fluorescence units): 3.49e7; calcium entry signal, replicate 2 (fluorescence units): 3.50e7; resting calcium signal, replicate 1 (fluorescence units): 1.76e7; resting calcium signal, replicate 2 (fluorescence units): 1.54e7; activity call: inactive

4 successive entries already listed:
CG15767 — calcium entry signal, replicate 1 (fluorescence units): 3.09e7; calcium entry signal, replicate 2 (fluorescence units): 3.85e7; resting calcium signal, replicate 1 (fluorescence units): 1.62e7; resting calcium signal, replicate 2 (fluorescence units): 1.80e7; activity call: inactive
alc #1 — calcium entry signal, replicate 1 (fluorescence units): 5.23e7; calcium entry signal, replicate 2 (fluorescence units): 3.70e7; resting calcium signal, replicate 1 (fluorescence units): 2.33e7; resting calcium signal, replicate 2 (fluorescence units): 1.72e7; activity call: inactive
alc #2 — calcium entry signal, replicate 1 (fluorescence units): 2.58e7; calcium entry signal, replicate 2 (fluorescence units): 3.50e7; resting calcium signal, replicate 1 (fluorescence units): 1.46e7; resting calcium signal, replicate 2 (fluorescence units): 1.65e7; activity call: inactive
alc #3 — calcium entry signal, replicate 1 (fluorescence units): 6.05e7; calcium entry signal, replicate 2 (fluorescence units): 4.43e7; resting calcium signal, replicate 1 (fluorescence units): 2.96e7; resting calcium signal, replicate 2 (fluorescence units): 2.35e7; activity call: inactive
